Data: US8962576B2, “Compositions and method for improving endothelial function and cardiovascular health” (Natreon, Inc., priority 2012, dated 2015)

Columns and labels:
Type 2 Diabetic Subjects [1] = assay: Biomarkers of oxidative stress and hsCRP, study (c); format: in vivo, human; settings: CAPROS 250 mg twice daily, Atorvastatin 10 mg daily, n = 20
Experimental: Malondialdehyde (MDA) levels were determined as described in Vidyasagar, et al., “Oxidative stress and antioxidant status in acute organophosphorous insecticide poisoning,” Indian J. Pharmacol. (April 2004) 36(2): 76-79. Glutathione levels were determined as described in G. L. Ellman, Arch. Biochem. Biophys. (1959) 82: 70-77 (original determination). Nitric oxide levels were estimated spectrophotometrically as described in Miranda, et al., “A Rapid, Simple Spectrophotometric Method for Simultaneous Detection of Nitrate and Nitrite,” NITRIC OXIDE: Biology and Chemistry (2001) Vol. 5, No. 1, pp. 62-71.
(§1) After screening, all the eligible subjects were randomized to receive either one of the four treatments for a duration of 12 weeks, as follows. Group 1: one capsule of CAPROS® 250 mg twice daily, group 2: one capsule of CAPROS® 500 mg twice daily; group 3: one capsule of Placebo in morning or one capsule of Atorvastatin 10 mg in evening daily; and group 4: only Placebo twice daily.
Nitric oxide, MDA, Glutathione (GSH) and levels thereof were estimated spectrophotometrically as described above, and HsCRP (high sensitivity C-reactive protein) by ELISA method.

Type 2 Diabetic Subjects [2] = assay: Glycosylated Hemoglobin A1c, study (c); format: in vivo, human; settings: CAPROS 250 mg twice daily, Atorvastatin 10 mg daily, n = 20
Experimental: as §1
All the subjects had undergone complete physical examination, safety lab evaluations at baseline and at the end of the treatment. Samples were collected after an overnight fast of 12 hrs after the last dose of medication for determination of haemoglobin, HbA1c, blood urea and serum creatinine, liver function test, and lipid profile (Total cholesterol (TC), High density lipoprotein cholesterol (HDL-C), low density lipoprotein cholesterol (LDL-C)), and results obtained using appropriate standard techniques.

Structure (SMILES): CC(C)c1c(C(=O)Nc2ccccc2)c(-c2ccccc2)c(-c2ccc(F)cc2)n1CC[C@@H](O)C[C@@H](O)CC(=O)O [Atorvastatin]
- Absolute change in GSH (Type 2 Diabetic Subjects [1]; 12 weeks): 222.99 ± 140.15 μM/L
- Mean percentage change in GSH (Type 2 Diabetic Subjects [1]; 12 weeks): 68.40 ± 58.76%
- GSH (Type 2 Diabetic Subjects [1]; Post TT, 12 weeks): 641.8 ± 150.2 μM/L
- GSH (Type 2 Diabetic Subjects [1]; Pre TT): 418.8 ± 166.7 μM/L
- absolute change in HbA1c (Type 2 Diabetic Subjects [2]; 12 weeks): −0.64 ± 0.23%
- HbA1c (Type 2 Diabetic Subjects [2]; Post TT, 12 weeks): 6.99 ± 0.39%
- HbA1c (Type 2 Diabetic Subjects [2]; Pre TT): 7.62 ± 0.33%
